Measurements reported in the supplement of paper PMC10849652.
This is one part of the list.

Amino acid sequences for entries named in this document (tags omitted). A change or cut given only in a name is not applied to a line headed by its entry.
UniProt O15498: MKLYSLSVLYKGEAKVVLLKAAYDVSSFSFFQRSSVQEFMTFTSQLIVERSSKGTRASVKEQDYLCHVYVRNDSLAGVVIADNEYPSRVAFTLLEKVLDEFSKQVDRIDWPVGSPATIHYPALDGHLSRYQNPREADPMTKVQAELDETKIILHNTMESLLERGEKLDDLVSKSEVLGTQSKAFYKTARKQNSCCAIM
UniProt Q8NF64: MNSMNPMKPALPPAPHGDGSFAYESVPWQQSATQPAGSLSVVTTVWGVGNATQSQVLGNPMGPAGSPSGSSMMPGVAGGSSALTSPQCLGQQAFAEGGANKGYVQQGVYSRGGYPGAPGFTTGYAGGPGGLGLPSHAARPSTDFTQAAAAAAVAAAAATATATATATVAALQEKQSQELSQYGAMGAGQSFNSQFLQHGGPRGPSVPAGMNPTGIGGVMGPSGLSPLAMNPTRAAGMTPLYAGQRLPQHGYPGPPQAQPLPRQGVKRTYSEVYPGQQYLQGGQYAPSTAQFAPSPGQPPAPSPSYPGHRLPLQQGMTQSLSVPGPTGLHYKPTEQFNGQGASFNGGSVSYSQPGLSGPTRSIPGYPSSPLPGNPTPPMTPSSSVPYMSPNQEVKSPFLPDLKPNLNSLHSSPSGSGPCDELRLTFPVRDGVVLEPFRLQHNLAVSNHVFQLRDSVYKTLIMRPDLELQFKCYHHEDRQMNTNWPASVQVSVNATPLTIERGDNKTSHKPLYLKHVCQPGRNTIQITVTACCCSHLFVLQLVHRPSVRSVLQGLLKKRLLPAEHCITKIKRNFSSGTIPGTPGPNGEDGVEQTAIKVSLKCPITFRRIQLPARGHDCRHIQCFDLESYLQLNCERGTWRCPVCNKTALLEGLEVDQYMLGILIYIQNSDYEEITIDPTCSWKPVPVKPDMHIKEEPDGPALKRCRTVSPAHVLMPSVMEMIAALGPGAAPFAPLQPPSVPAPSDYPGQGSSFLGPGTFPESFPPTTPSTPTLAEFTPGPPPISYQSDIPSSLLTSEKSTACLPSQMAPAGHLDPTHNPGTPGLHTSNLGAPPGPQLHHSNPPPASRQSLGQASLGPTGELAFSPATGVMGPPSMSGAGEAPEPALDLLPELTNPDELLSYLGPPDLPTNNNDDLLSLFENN
UniProt Q9UQR1: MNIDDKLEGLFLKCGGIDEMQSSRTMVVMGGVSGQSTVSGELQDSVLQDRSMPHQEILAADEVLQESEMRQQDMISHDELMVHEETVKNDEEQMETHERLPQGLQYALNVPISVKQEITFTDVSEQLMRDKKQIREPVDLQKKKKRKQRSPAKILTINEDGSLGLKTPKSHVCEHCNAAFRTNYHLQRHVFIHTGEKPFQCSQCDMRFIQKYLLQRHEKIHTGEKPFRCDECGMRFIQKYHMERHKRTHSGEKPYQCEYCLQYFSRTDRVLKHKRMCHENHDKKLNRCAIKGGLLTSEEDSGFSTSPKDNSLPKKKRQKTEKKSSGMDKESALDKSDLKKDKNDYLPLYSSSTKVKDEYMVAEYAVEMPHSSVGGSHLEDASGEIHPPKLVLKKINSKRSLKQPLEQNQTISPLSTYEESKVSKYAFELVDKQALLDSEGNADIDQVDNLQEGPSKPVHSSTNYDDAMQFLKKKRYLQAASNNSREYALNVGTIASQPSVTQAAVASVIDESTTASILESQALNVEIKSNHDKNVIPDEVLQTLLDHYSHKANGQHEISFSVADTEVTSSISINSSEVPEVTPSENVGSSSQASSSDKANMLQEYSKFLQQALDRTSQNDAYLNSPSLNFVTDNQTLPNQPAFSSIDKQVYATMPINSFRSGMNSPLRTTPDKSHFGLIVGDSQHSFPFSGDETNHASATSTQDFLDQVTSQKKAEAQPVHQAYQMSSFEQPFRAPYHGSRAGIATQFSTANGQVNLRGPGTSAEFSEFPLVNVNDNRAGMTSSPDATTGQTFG
UniProt Q5T4F4: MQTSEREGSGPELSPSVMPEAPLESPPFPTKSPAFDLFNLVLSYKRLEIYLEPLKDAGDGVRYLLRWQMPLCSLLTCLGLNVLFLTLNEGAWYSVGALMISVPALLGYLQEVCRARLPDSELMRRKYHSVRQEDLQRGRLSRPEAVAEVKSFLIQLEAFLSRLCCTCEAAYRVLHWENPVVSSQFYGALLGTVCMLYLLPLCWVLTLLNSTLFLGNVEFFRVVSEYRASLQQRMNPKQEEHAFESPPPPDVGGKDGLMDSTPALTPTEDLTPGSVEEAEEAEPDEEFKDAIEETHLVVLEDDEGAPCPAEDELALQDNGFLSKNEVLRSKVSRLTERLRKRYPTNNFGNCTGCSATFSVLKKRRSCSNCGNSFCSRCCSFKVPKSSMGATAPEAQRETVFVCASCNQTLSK
UniProt Q7Z2W4: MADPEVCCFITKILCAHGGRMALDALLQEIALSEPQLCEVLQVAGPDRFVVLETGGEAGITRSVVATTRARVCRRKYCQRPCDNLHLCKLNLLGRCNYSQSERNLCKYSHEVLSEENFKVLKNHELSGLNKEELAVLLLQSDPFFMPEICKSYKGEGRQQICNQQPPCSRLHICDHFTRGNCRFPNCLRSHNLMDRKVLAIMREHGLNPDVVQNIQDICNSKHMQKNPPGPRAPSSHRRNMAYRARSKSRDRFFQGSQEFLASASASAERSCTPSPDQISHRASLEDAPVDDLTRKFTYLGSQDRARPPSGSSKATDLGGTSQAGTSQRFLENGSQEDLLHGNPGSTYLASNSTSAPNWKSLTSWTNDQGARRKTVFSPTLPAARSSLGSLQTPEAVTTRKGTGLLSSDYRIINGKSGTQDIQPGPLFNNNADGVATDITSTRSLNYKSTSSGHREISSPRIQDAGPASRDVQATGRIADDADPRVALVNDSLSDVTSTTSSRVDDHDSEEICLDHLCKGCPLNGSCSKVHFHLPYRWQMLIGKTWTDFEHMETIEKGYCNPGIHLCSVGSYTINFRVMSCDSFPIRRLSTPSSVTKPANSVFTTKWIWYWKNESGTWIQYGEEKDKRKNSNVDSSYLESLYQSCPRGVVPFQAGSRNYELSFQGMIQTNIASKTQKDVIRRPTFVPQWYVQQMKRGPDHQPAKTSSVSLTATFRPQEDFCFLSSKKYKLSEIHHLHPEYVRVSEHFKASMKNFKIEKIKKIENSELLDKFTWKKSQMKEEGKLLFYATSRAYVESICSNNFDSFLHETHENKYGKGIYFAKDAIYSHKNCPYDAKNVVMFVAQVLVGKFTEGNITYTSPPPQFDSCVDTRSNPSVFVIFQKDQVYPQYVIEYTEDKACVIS
UniProt Q9GZM5: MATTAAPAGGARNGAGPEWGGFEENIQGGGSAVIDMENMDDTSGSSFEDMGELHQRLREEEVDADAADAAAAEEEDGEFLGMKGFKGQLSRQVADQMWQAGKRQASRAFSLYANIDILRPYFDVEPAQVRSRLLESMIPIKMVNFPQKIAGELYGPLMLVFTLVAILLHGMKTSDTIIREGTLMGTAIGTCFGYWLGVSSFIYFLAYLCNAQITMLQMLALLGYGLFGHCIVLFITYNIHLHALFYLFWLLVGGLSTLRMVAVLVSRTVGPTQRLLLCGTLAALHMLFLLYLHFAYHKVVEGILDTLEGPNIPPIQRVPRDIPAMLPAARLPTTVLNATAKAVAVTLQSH
UniProt Q6PJT7: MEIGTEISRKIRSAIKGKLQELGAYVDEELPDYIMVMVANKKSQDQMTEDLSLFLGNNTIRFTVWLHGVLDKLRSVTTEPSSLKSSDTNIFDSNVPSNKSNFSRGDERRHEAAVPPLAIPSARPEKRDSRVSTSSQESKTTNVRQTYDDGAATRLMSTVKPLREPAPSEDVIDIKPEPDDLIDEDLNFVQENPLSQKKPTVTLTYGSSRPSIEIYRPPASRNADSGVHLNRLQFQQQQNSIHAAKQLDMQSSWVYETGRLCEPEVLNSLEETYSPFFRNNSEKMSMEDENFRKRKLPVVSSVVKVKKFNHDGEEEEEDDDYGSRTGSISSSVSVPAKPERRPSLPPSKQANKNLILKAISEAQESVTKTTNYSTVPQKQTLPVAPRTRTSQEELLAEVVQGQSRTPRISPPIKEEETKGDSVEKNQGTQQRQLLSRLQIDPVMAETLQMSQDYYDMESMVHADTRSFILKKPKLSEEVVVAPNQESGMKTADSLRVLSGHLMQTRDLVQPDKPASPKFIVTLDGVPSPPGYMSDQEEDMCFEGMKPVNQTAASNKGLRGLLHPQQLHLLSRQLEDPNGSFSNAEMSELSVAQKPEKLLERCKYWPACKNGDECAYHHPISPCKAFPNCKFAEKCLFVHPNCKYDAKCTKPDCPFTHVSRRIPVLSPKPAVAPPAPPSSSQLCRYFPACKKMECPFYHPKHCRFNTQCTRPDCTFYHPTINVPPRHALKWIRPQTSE
UniProt Q04917: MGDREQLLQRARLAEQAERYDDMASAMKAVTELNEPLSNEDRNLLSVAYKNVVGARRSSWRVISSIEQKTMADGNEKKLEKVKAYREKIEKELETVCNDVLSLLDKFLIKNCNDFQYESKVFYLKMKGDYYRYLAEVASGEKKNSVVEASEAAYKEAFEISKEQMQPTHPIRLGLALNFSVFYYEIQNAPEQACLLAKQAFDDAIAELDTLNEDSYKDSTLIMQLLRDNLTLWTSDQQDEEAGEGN
UniProt Q7Z3T8: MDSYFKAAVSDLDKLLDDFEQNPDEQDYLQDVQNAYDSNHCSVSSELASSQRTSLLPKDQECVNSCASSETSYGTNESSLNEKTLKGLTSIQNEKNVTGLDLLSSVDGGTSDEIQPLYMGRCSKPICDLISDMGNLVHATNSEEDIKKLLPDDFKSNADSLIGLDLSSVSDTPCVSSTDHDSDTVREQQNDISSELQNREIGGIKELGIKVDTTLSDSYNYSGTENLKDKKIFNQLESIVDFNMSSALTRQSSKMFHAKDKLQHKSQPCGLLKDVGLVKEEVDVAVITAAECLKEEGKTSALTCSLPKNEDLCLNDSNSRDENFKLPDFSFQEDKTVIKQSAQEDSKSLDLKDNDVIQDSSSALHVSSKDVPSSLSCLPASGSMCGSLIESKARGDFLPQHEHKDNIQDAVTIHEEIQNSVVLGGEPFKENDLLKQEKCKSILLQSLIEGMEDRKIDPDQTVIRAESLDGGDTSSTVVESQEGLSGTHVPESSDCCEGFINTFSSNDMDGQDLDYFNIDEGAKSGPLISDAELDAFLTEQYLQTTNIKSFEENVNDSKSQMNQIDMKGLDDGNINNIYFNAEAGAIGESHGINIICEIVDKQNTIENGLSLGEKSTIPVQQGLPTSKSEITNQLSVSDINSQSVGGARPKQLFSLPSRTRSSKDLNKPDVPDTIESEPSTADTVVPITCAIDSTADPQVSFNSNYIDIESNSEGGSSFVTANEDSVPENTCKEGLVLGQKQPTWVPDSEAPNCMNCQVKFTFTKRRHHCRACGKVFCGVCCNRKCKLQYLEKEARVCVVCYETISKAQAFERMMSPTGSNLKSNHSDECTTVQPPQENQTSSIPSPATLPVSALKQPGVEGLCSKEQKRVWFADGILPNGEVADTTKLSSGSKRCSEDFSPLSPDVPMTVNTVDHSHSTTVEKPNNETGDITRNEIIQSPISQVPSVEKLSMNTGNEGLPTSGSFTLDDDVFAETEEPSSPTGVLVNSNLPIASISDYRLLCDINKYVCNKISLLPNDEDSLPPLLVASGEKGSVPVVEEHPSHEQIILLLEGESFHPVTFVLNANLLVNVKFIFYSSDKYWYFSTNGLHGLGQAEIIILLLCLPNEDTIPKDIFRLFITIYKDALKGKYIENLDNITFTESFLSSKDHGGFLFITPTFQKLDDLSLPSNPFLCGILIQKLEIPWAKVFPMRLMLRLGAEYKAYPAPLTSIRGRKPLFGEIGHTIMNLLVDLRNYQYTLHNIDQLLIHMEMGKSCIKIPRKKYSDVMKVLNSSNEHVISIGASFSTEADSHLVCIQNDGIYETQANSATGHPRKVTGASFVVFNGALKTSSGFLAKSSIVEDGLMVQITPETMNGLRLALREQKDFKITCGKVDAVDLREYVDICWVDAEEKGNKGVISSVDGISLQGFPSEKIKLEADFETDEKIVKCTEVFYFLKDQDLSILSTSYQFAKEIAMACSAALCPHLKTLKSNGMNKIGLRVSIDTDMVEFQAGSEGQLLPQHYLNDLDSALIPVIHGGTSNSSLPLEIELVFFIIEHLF
UniProt Q8IWT0: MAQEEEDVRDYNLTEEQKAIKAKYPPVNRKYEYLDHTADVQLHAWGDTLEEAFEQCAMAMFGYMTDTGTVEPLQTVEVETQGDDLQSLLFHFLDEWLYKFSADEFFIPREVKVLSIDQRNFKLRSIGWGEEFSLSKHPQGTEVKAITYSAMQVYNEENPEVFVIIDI
UniProt Q9NYG2: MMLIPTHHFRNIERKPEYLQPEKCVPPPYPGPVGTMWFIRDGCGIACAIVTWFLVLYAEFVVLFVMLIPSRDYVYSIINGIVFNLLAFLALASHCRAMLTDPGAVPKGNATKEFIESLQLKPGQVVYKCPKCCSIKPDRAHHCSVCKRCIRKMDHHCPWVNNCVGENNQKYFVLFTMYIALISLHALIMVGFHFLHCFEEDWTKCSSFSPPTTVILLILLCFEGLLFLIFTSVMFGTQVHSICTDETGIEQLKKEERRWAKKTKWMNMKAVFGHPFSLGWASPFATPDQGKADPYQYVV

Tests used:
Assay in all cases: log2 fold change, soluble protein after heating vs DMSO (PISA); higher = thermal stabilisation; K562 cells, 10 uM, 30 min; active = over 0.2 and 3.5 SD of the protein, either way, in both replicates (recomputed)
[1] = compound: COC1=CC=C(C=C1)CN2C=CC3=C2C=C(C=C3)C(=O)NO
How it was run: (§1)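 For each measurement, 10 μM compound was applied for 30 min to K562 cells at 2×10^6 cells/mL. Aliquots were heated for 3 min across 48°C-58°C, pooled, and extracted in PBS with 0.5% NP-40 at 4°C; the supernatant after 21,000xg for 90 min was soluble protein. This was quantified by TMTpro 16plex LC-MS/MS with channel sums equalised, and thermal stability was reported relative to control samples from duplicates, on a log2 fold-change scale.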

[2] = compound: CON(C)C(=O)N1N=C(c2cc(F)ccc2F)S[C@@]1(CCCN)c1ccccc1 [filanesib]
How it was run: as §1

[3] = compound: CO[C@H]1C[C@@H]2CC[C@@H](C)[C@@](O)(O2)C(=O)C(=O)N2CCCC[C@H]2C(=O)O[C@H]([C@H](C)C[C@@H]2CC[C@H](n3cnnn3)[C@H](OC)C2)CC(=O)[C@H](C)/C=C(\C)[C@@H](O)[C@@H](OC)C(=O)[C@H](C)C[C@H](C)/C=C/C=C/C=C/1C [zotarolimus]
How it was run: as §1

[4] = compound: COc1cc(C(=O)O)ccc1NC(=O)[C@@H]1N[C@@H](CC(C)(C)C)[C@](C#N)(c2ccc(Cl)cc2F)[C@H]1c1cccc(Cl)c1F [idasanutlin]
How it was run: as §1

[5] = compound: COc1cc(Nc2ncc3c(n2)-c2ccc(Cl)cc2C(c2c(F)cccc2OC)=NC3)ccc1C(=O)O [alisertib]
How it was run: as §1

[6] = compound: COc1cc2nc(-c3cc(F)ccc3O)nc(N[C@@H]3CNC[C@H]3C(C)(C)O)c2cc1OC
How it was run: as §1

[7] = compound: COc1cc2ncnc(Nc3ccc(F)c(Cl)c3)c2cc1OCCCN1CCOCC1 [gefitinib]
How it was run: as §1

[8] = compound: COc1cccc2cc(-c3nc([C@H]4CC[C@H](C(=O)O)CC4)n4ncnc(N)c34)[nH]c12
How it was run: as §1

[9] = compound: CS(=O)(=O)CCNCc1ccc(-c2ccc3ncnc(Nc4ccc(OCc5cccc(F)c5)c(Cl)c4)c3c2)o1 [lapatinib]
How it was run: as §1

[10] = compound: CS(=O)(=O)N1CCN(Cc2cc3nc(-c4cccc5[nH]ncc45)nc(N4CCOCC4)c3s2)CC1 [pictilisib]
How it was run: as §1

[11] = compound: CS(=O)(=O)c1ccc(-c2cnc(N)c(C(=O)Nc3ccccc3)n2)cc1
How it was run: as §1

[12] = compound: C[C@@H](Oc1cc(-c2cnn(C3CCNCC3)c2)cnc1N)c1c(Cl)ccc(F)c1Cl [crizotinib]
How it was run: as §1

[13] = compound: C[C@@H]1COCCN1C2=NC(=NC(=C2)C3(CC3)S(=O)(=O)C)C4=C5C=CNC5=CC=C4
How it was run: as §1

[14] = compound: C[C@H](C1=CC=C(C=C1)C(=O)NC2=C3C=CNC3=NC=C2)N
How it was run: as §1

[15] = compound: C[C@H](Nc1ncnc2nc[nH]c12)c1cc2cccc(Cl)c2c(=O)n1-c1ccccc1 [duvelisib]
How it was run: as §1

[16] = compound: Cc1cc(Nc2cc(CN3CCOCC3)c3nc(C)c(Cc4ccc(Cl)cc4F)n3n2)n[nH]1 [gandotinib]
How it was run: as §1

[17] = compound: Cc1cc(Nc2cc(N3CCN(C)CC3)nc(Sc3ccc(NC(=O)C4CC4)cc3)n2)n[nH]1 [tozasertib]
How it was run: as §1

[18] = compound: Cc1cc(SCc2sc(-c3ccc(C(F)(F)F)cc3)nc2C)ccc1OCC(=O)O
How it was run: as §1

[19] = compound: Cc1ccc(-n2nc(C(C)(C)C)cc2NC(=O)Nc2ccc(OCCN3CCOCC3)c3ccccc23)cc1 [doramapimod]
How it was run: as §1

[20] = compound: Cc1ccc(C(=O)N(CCCN)[C@@H](c2nc3cc(Cl)ccc3c(=O)n2Cc2ccccc2)C(C)C)cc1 [ispinesib]
How it was run: as §1

Measured: log2 fold change

YKT6 (UniProt O15498)
inactive: [1] -0.025 | [2] 0.007 | [3] 0.016 | [4] 0.023 | [5] -0.042 | [6] 0.029 | [7] 0.005 | [8] 0.027 | [9] -0.022 | [10] 0.02 | [11] 0.034 | [12] 0.039 | [13] 0.009 | [14] -0.022 | [15] 0.082 | [16] 0.025 | [17] -0.005 | [18] -0.008 | [19] -0.033 | [20] 0.086

ZMIZ2 (UniProt Q8NF64)
inactive: [1] -0.178 | [2] -0.043 | [3] -0.093 | [4] 0.005 | [5] -0.009 | [6] 0.133 | [7] 0.01 | [8] -0.041 | [9] -0.081 | [10] 0.023 | [11] 0.022 | [12] 0.116 | [13] 0.073 | [14] -0.012 | [15] 0.087 | [16] 0.063 | [17] -0.076 | [18] -0.038 | [19] -0.009 | [20] 0.02

YJU2 (UniProt Q9BW85)
inactive: [1] -0.041 | [2] -0.021 | [3] 0.011 | [4] 0.004 | [5] 0.029 | [6] 0.032 | [7] -0.009 | [8] -0.03 | [9] -0.003 | [10] 0.009 | [11] -0.006 | [12] 0.173 | [13] 0.008 | [14] -0.054 | [15] 0.079 | [16] 0.056 | [17] 0.025 | [18] 0.028 | [19] -0.026 | [20] 0.05

ZNF148 (UniProt Q9UQR1)
inactive: [1] -0.122 | [2] -0.139 | [3] 0.026 | [4] -0.213 | [5] -0.073 | [6] -0.009 | [7] 0.157 | [8] -0.096 | [9] -0.002 | [10] 0.176 | [11] 0.056 | [12] 0.051 | [13] -0.026 | [14] 0.045 | [15] -0.061 | [16] -0.1 | [17] -0.052 | [18] -0.055 | [19] -0.012 | [20] -0.111

ZFYVE27 isoform 2 (UniProt Q5T4F4)
inactive: [1] 0.007 | [2] -0.141 | [3] 0.038 | [4] 0.029 | [5] 0.008 | [6] 0.032 | [7] 0.012 | [8] 0.047 | [9] -0.001 | [10] -0.079 | [11] 0.012 | [12] -0.139 | [13] -0.087 | [14] -0.008 | [15] 0.035 | [16] -0.057 | [17] 0.042 | [18] -0.015 | [19] -0.175 | [20] 0.032

YBX3 (UniProt P16989)
inactive: [1] -0.043 | [2] 0.244 | [3] -0.063 | [4] 0.179 | [5] -0.078 | [6] 0.005 | [7] -0.054 | [8] -0.153 | [9] 0.063 | [10] 0.006 | [11] -0.1 | [12] 0.088 | [13] -0.346 | [14] 0.2 | [15] -0.105 | [16] 0.34 | [17] 0.014 | [18] -0.002 | [19] 0.093 | [20] -0.117

ZC3H15 (UniProt Q8WU90)
inactive: [1] -0.002 | [2] 0.148 | [3] 0 | [4] 0.046 | [5] -0.029 | [6] 0.053 | [7] -0.023 | [8] -0.029 | [9] -0.028 | [10] 0.009 | [11] 0.054 | [12] -0.066 | [13] -0.075 | [14] 0.034 | [15] -0.028 | [16] 0.073 | [17] -0.026 | [18] -0.017 | [19] 0.054 | [20] -0.011

ZC3HAV1 (UniProt Q7Z2W4)
inactive: [1] -0.039 | [2] 0.304 | [3] 0.04 | [4] 0.383 | [5] -0.088 | [6] 0.016 | [7] -0.023 | [8] -0.211 | [9] 0.211 | [10] -0.136 | [11] 0.035 | [12] -0.045 | [13] -0.419 | [14] 0.463 | [15] -0.104 | [16] 0.252 | [17] 0.072 | [18] 0.18 | [19] 0.177 | [20] -0.334

ZC3H4 (UniProt Q9UPT8)
inactive: [1] -0.06 | [2] 0.276 | [3] -0.052 | [4] 0.117 | [5] -0.121 | [6] -0.011 | [7] -0.029 | [8] -0.139 | [9] 0.205 | [10] 0.03 | [11] -0.032 | [12] 0.012 | [13] -0.324 | [14] 0.288 | [15] -0.156 | [16] 0.287 | [17] -0.048 | [18] -0.008 | [19] 0.081 | [20] -0.062

YIPF3 (UniProt Q9GZM5)
inactive: [1] 0.076 | [2] -0.015 | [3] 0.012 | [4] -0.109 | [5] -0.046 | [6] -0.002 | [7] 0.025 | [8] 0.047 | [9] -0.058 | [10] 0.005 | [11] -0.026 | [12] 0.036 | [13] 0.038 | [14] -0.05 | [15] 0.073 | [16] 0 | [17] 0.049 | [18] -0.028 | [19] -0.05 | [20] 0.055

ZC3H14 (UniProt Q6PJT7)
inactive: [1] -0.04 | [2] 0.158 | [3] -0.082 | [4] 0 | [5] 0.037 | [6] 0.125 | [7] -0.076 | [8] -0.01 | [9] 0.144 | [10] -0.005 | [11] 0 | [12] -0.093 | [13] -0.066 | [14] 0.015 | [15] -0.05 | [16] -0.052 | [17] 0.034 | [18] 0.091 | [19] 0.008 | [20] 0.009

YTHDF2 (UniProt Q9Y5A9)
inactive: [1] 0.015 | [2] 0.045 | [3] -0.007 | [4] -0.032 | [5] -0.066 | [6] 0.001 | [7] -0.068 | [8] 0.005 | [9] -0.01 | [10] 0.04 | [11] 0.016 | [12] -0.002 | [13] -0.08 | [14] 0.006 | [15] -0.017 | [16] 0.045 | [17] -0.002 | [18] 0.034 | [19] -0.018 | [20] -0.081

YWHAH (UniProt Q04917)
inactive: [1] 0.148 | [2] -0.011 | [3] 0.021 | [4] -0.007 | [5] -0.046 | [6] -0.026 | [7] 0.024 | [8] 0.002 | [9] 0.006 | [10] -0.009 | [11] 0.024 | [12] 0.03 | [13] 0.105 | [14] -0.043 | [15] -0.024 | [16] -0.033 | [17] 0.033 | [18] 0.019 | [19] -0.075 | [20] 0.09

ZFYVE16 (UniProt Q7Z3T8)
inactive: [1] -0.078 | [2] -0.031 | [3] 0.017 | [4] -0.014 | [5] 0.02 | [6] 0.054 | [7] 0.009 | [8] 0.028 | [9] 0.006 | [10] 0.073 | [11] 0.034 | [12] -0.022 | [13] 0.067 | [14] -0.066 | [15] 0.002 | [16] -0.009 | [17] -0.007 | [18] 0.012 | [19] 0.031 | [20] -0.035

ZBTB8OS (UniProt Q8IWT0)
inactive: [1] 0.004 | [2] -0.159 | [3] -0.132 | [4] -0.048 | [5] -0.038 | [6] 0.059 | [7] 0.009 | [8] -0.009 | [9] -0.032 | [10] 0.184 | [11] 0.004 | [12] -0.089 | [13] 0.079 | [14] 0.176 | [15] 0.128 | [16] -0.042 | [17] 0.017 | [18] 0.037 | [19] 0.039 | [20] 0.054

ZDHHC3 isoform 2 (UniProt Q9NYG2)
inactive: [1] 0.007 | [2] -0.042 | [3] -0.056 | [4] 0.033 | [5] 0.014 | [6] -0.072 | [7] -0.017 | [8] 0.103 | [9] -0.111 | [10] 0.021 | [11] 0.04 | [12] -0.066 | [13] -0.002 | [14] -0.047 | [15] 0.07 | [16] -0.107 | [17] -0.018 | [18] 0.004 | [19] 0.017 | [20] -0.062

Quoted at random: 2 records from the list.
ZDHHC3 isoform 2 (UniProt Q9NYG2)
inactive: [1] 0.007 | [2] -0.042 | [3] -0.056 | [4] 0.033 | [5] 0.014 | [6] -0.072 | [7] -0.017 | [8] 0.103 | [9] -0.111 | [10] 0.021 | [11] 0.04 | [12] -0.066 | [13] -0.002 | [14] -0.047 | [15] 0.07 | [16] -0.107 | [17] -0.018 | [18] 0.004 | [19] 0.017 | [20] -0.062

YWHAH (UniProt Q04917)
inactive: [1] 0.148 | [2] -0.011 | [3] 0.021 | [4] -0.007 | [5] -0.046 | [6] -0.026 | [7] 0.024 | [8] 0.002 | [9] 0.006 | [10] -0.009 | [11] 0.024 | [12] 0.03 | [13] 0.105 | [14] -0.043 | [15] -0.024 | [16] -0.033 | [17] 0.033 | [18] 0.019 | [19] -0.075 | [20] 0.09
